Laboratory results from the supplement of paper PMC10338343.
± gives the standard deviation. This is a selection; strong and weak results do not stand in their true shares. Many of these values have a large error.

These sequences were tested on MIWI (PIWIL1) piRISC loaded with Kctd7 piRNA (30 nt) (assay: pre-steady-state target cleavage rate (min^-1); MIWI and MILI are mouse PIWI proteins and EfPiwi is from a freshwater sponge; tags in brackets are library labels; higher = faster piRNA-guided slicing of the target). Conditions: guide: Kctd7 piRNA 5'p-UGUUAAUCUCUCAGAGAAGGUGACAGUGAU; auxiliary factor: 500 nM mouse GTSF1.
In short: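 A transcribed, DNA-blocked target RNA library (0.1 nM) and 1 nM active affinity-purified piRISC bearing one synthetic guide were incubated in HEPES–potassium acetate buffer at 33 °C for 0–8 or 0–960 min, either with or without 500 nM GTSF1 partner protein. Uncleaved targets were sequenced, normalised to depth and to weakly complementary targets, and pooled over three trials, with k3 capped at 0.0001 min^-1. The pre-steady-state cleavage rate was derived with a burst-and-steady-state fit.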

Sequence	pre-steady-state target cleavage rate
UAGACUGUCACCUUCUCUGACUCAUAUUGA	0.000136 ± 0.016
UAGACUGUCACCUUCUCUCUCAGAUUAAGA	0.000138 ± 0.017
UAGACUGUCACCUUCUCUGAGUGAUUAUGA	0.000903 ± 0.0058
UAGUGACAGAGCAUCUCUGAGAGAUUAACA	0.00106 ± 0.0054
UAGUGACAGUCGUUGUCUGAGAGAUUAACA	0.000545 ± 0.01
UAGUGACAGUCCUUCUCUGAGAGUUUAUCA	0.00111 ± 0.0049
UAGUGACACACCUUCUCUGAGGAUUAACA	0.00258 ± 0.0044
UAGUGACAGUGGAAGAGACAGAGAUUUAACA	0.000218 ± 0.032
UAGUCUGUCACCUUGACUGAGAGAUUAUGA	0.000804 ± 0.008
UAGUGACAGUGGUUCUCUGUGACAUUAACA	0.000153 ± 0.024
UAGUGACAGUGGAUUUCUGAGAGAUUAACA	0.000104 ± 0.024
UAGUGUCAGACCUUCUCUGAGAGAUUUUGA	0.000567 ± 0.013
UAGUGACACUCCUUCUCUGAGAGAUAUUGA	0.00274 ± 0.0042
UAGUGACUCUCCUUCUCUGAGAGAUUUUGA	0.000935 ± 0.0086
UAGUGAGUCACCUUCUCUGAGUCAUUAUGA	0.00164 ± 0.0065
UAGUGAGUGUGCUUCUCUGAGAGAUUAUGA	0.00138 ± 0.0051
UAGUGACUCACCUUCUCUGAGUGAUUAACA	0.0244 ± 0.0052
UAGUGACAGUGGAAGAGACUCAGAUUUACA	0.000174 ± 0.011
UAGUGUGUCACCUUCUCUGACAGAUUUUGA	0.00198 ± 0.0068
UAGUGACAGACCUUCUCUGAGACAUUUUGA	0.000453 ± 0.018
UAGUGAGUCACCUUCUCUGAGACAUAUUGA	0.00295 ± 0.0039
UUCACUGAUCACCUUCUCUGAGAGAUUAACA	0.653 ± 0.052
AUCACUGUCACCUUCUCUGAGACUAUAAGA	0.0016 ± 0.0042
UAGUGACAGUGGAAGAGACAGAGGAUUAACA	0.000625 ± 0.011

Another view of some results above:

| Sequence | pre-steady-state target cleavage rate |
| --- | --- |
| UAGUGACAGUCCUUCUCUGAGAGUUUAUCA | 0.00111 ± 0.0049 |
| UAGUGACACACCUUCUCUGAGGAUUAACA | 0.00258 ± 0.0044 |
| UAGUGACAGUGGAAGAGACAGAGAUUUAACA | 0.000218 ± 0.032 |

The listing continues:

Sequence	pre-steady-state target cleavage rate
UAGUGAGUCACCUUCUGACAGAGAUUAACA	0.00116 ± 0.01
UAGUGACAGUCGUUCUCUGAGAGAUUUACA	0.000612 ± 0.015
UAGUGACAGUCCAUCUCAGAGAGAUUAACA	0.00153 ± 0.0063
UAGUGACACACCUUCUCUGAGAUGAUUAACA	0.00345 ± 0.0036
UAGUCUGUGACCUUCUGUGAGAGAUUAACA	0.399 ± 0.028
UAGACUGUCACCUUCUCUGACUCAUUAAGA	0.000459 ± 0.01
UAGUGACAGUCCUUCUCAGAGAGUUUAACA	0.0044 ± 0.0027
UAGUGACAGACCUUCUCUGAGUGAUUAAGA	0.000858 ± 0.0077
AUCACUCUCACCUUCUCUGAGAGAUUAACA	0.551 ± 0.029
UAGUGACUCACCUUCUCUGAGACAUUUUGA	0.000488 ± 0.011
UAGUGUGUCACCUUCUCUGGAGAGAUUAACA	0.00122 ± 0.013
UUCACAGUCACCUUCUCUGAGAGAUUAACA	0.656 ± 0.027
AUCACUGUCACCUUCUCUGACUGAUUUUGA	0.00307 ± 0.0036
UACACUCUCACCUUCUCUGUGAGAUUAACA	0.141 ± 0.014
UAGACUGUCACCUUCUCUGAGACAUAAACA	0.00199 ± 0.0039
UAGUGACAGACCUUCUCUGAGAGAAUUACA	0.00351 ± 0.0051
UAGUGACACACCUUGUCUGAGAGAUAUUGA	0.0008 ± 0.011
UAGUCUGACACCUUCUCUGAGAGAUAUUGA	0.00198 ± 0.0037
UAGUCUGUCACCUUCUCUGACUCAUUUUGA	0.00125 ± 0.0044
UAGUCUGUCACCUUCUCUGUCUCUAAUUGA [g12:g26:cont:t1A]	0.00147 ± 0.0068
UAGUGACAGUGGAAGAGAGAGAGAUAAUCA	0.000229 ± 0.023
UAGUGACAGACCUUCUCUCAGUGAUUAACA	0.002 ± 0.0053
UUCACUGUCACCUUCUCUGUCUCUAAUUGA [g12:g29:cont:t1A]	0.00372 ± 0.0039
UAGUGAGUCAGCUUCUCUGAGAGAUAUUGA	0.00249 ± 0.0048

Sequence	pre-steady-state target cleavage rate
UAGUGUGUCUGCUUCUCUGAGAGAUUUUGA	0.000801 ± 0.0072
UAGUGUGUCACCUUCUCUGUCUGAUUAAGA	0.00222 ± 0.0083
UAGUGACAGUGGUUCUGUGUGAGAUUAACA	0.000138 ± 0.067
UAGUCUGAGUCCUUCUCUGAGAGAUUAUGA	0.00174 ± 0.0042
UAGUGACAGUCCUUCUCUGAGAGUAAAACA	0.000846 ± 0.0052
UAGACUGUCAGCUUCUCUGAGAGAUUAUCA	0.171 ± 0.024
UAGUGACAGUGCUUGAGUGAGAGAUUAACA	0.000404 ± 0.02
UAGACUGUCACGAUCUCUGAGAGAUUAUGA	0.00277 ± 0.0029
UAGUGACUCACCUUCUGACAGAGAUUUUGA	0.000219 ± 0.038
UAGUGACAGUCCUUCACUGAGAGAUUAUGA	0.000905 ± 0.0091
UAGUGACAGACCUUCUGUGACAGAUUAACA	0.003 ± 0.0049
UAGUGACAGACCAUCUCUGAGAGAAUAACA	0.00244 ± 0.0047
UUCAGUGUCAGCUUCUCUGAGAGAUUAACA	0.609 ± 0.032
UAGUGACAGUGGAAGAGUGAGUCAUUAACA	0.000579 ± 0.012
UUCACUGUUCACCUUCUCUGAGAGAUUAACA	0.633 ± 0.036
UAGUGACAGACGUACUCUGAGAGAUUAACA	0.000693 ± 0.0079
UAGUGACAGACGUUCUCUGAGUGAUUAACA	0.00212 ± 0.0058
UAGUGUGUCACCAUCUCUGACAGAUUAACA	0.222 ± 0.021
UAGUGAGUCAGGAUCUCUGAGAGAUUAUGA	0.00046 ± 0.01
AUCACUGUCACCUUCUCUGAGAAUUAACA	0.366 ± 0.11
UAGACUCACACCUUCUCUGAGAGAUUAUGA	0.0733 ± 0.015
UAGUGACAGUGCUUCUGUGAGACAUUAACA	0.000584 ± 0.012
AUCACCUGUCACCUUCUCUGAGAGAUUAACA	0.742 ± 0.05
